{"source": "PubChem BioAssay AID186", "about": "(DTP/NCI, 2004)", "test_system": "B6D2F1 mice, nontumored toxicity test, survival", "assay": "NCI In Vivo Anticancer Drug Screen. Data for tumor model Nontumored Animals (Toxicity Test) in B6D2F1 (BDF1) mice", "details": "vehicle: water", "note": "Shown are survivors of the treated group in tumour-free mice. Counts of survivors are from the toxicity check (mostly the fifth day) where no day follows; animals may have died later. Schedule codes are those of the source, read here as Q, the interval in days (D) or hours (H), X, the number of doses.", "data": [{"smiles": "COc1cccc2c1C(=O)c1c(O)c3c(c(O)c1C2=O)C[C@@](O)(/C(C)=N/NC(=O)c1ccccc1)C[C@@H]3OC1CC(N)C(O)C(C)O1", "note": "(some centres not stated)", "values": [{"measurement": "survivor count", "setting": "dose: 0.18 mg/kg/injection, schedule: Q03HX008 (ip)", "value": "6 of 6"}, {"measurement": "survivor count", "setting": "dose: 0.5 mg/kg/injection, schedule: Q01DX009 (ip)", "value": "6 of 6"}, {"measurement": "survivor count", "setting": "dose: 0.5 mg/kg/injection, schedule: Q03HX024 (ip)", "value": "6 of 6"}, {"measurement": "survivor count", "setting": "dose: 0.78 mg/kg/injection, schedule: Q03HX024 (ip)", "value": "6 of 6"}, {"measurement": "survivor count", "setting": "dose: 1.0 mg/kg/injection, schedule: Q01DX009 (ip)", "value": "6 of 6"}, {"measurement": "survivor count", "setting": "dose: 1.0 mg/kg/injection, schedule: Q03HX008 (ip)", "value": "5 of 6"}, {"measurement": "survivor count", "setting": "dose: 1.0 mg/kg/injection, schedule: Q03HX024 (ip)", "value": "6 of 6"}, {"measurement": "survivor count", "setting": "dose: 1.17 mg/kg/injection, schedule: Q03HX024 (ip)", "value": "6 of 6"}, {"measurement": "survivor count", "setting": "dose: 1.2 mg/kg/injection, schedule: Q01DX009 (ip)", "value": "6 of 6"}, {"measurement": "survivor count", "setting": "dose: 1.2 mg/kg/injection, schedule: Q03HX008 (ip)", "value": "6 of 6"}, {"measurement": "survivor count", "setting": "dose: 1.75 mg/kg/injection, schedule: Q03HX008 (ip)", "value": "6 of 6"}, {"measurement": "survivor count", "setting": "dose: 1.75 mg/kg/injection, schedule: Q03HX024 (ip)", "value": "6 of 6"}, {"measurement": "survivor count", "setting": "dose: 1.76 mg/kg/injection, schedule: Q01DX009 (ip)", "value": "6 of 6"}, {"measurement": "survivor count", "setting": "dose: 2.0 mg/kg/injection, schedule: Q01DX009 (ip)", "value": "6 of 6"}, {"measurement": "survivor count", "setting": "dose: 2.0 mg/kg/injection, schedule: Q03HX008 (ip)", "value": "8 of 8"}, {"measurement": "survivor count", "setting": "dose: 2.0 mg/kg/injection, schedule: Q03HX024 (ip)", "value": "6 of 6"}, {"measurement": "survivor count", "setting": "dose: 2.5 mg/kg/injection, schedule: Q04DX003 (ip)", "value": "6 of 6"}, {"measurement": "survivor count", "setting": "dose: 2.6 mg/kg/injection, schedule: Q01DX009 (ip)", "value": "6 of 6"}, {"measurement": "survivor count", "setting": "dose: 2.6 mg/kg/injection, schedule: Q03HX008 (ip)", "value": "6 of 6"}, {"measurement": "survivor count", "setting": "dose: 2.6 mg/kg/injection, schedule: Q03HX024 (ip)", "value": "6 of 6"}, {"measurement": "survivor count", "setting": "dose: 2.6 mg/kg/injection, schedule: Q04DX003 (ip)", "value": "6 of 6"}, {"measurement": "survivor count", "setting": "dose: 3.9 mg/kg/injection, schedule: Q01DX001 (ip)", "value": "6 of 6"}, {"measurement": "survivor count", "setting": "dose: 3.9 mg/kg/injection, schedule: Q01DX009 (ip)", "value": "6 of 6"}, {"measurement": "survivor count", "setting": "dose: 3.9 mg/kg/injection, schedule: Q03HX008 (ip)", "value": "6 of 6"}, {"measurement": "survivor count", "setting": "dose: 3.9 mg/kg/injection, schedule: Q03HX024 (ip)", "value": "6 of 6"}, {"measurement": "survivor count", "setting": "dose: 3.9 mg/kg/injection, schedule: Q04DX003 (ip)", "value": "5 of 6"}, {"measurement": "survivor count", "setting": "dose: 4.0 mg/kg/injection, schedule: Q03HX008 (ip)", "value": "6 of 6"}, {"measurement": "survivor count", "setting": "dose: 5.0 mg/kg/injection, schedule: Q01DX001 (ip)", "value": "6 of 6"}, {"measurement": "survivor count", "setting": "dose: 5.0 mg/kg/injection, schedule: Q04DX003 (ip)", "value": "6 of 6"}, {"measurement": "survivor count", "setting": "dose: 5.0 mg/kg/injection, schedule: Q08DX002 (ip)", "value": "6 of 6"}, {"measurement": "survivor count", "setting": "dose: 5.9 mg/kg/injection, schedule: Q01DX001 (ip)", "value": "6 of 6"}, {"measurement": "survivor count", "setting": "dose: 5.9 mg/kg/injection, schedule: Q01DX009 (ip)", "value": "5 of 6"}, {"measurement": "survivor count", "setting": "dose: 5.9 mg/kg/injection, schedule: Q03HX008 (ip)", "value": "6 of 6"}, {"measurement": "survivor count", "setting": "dose: 5.9 mg/kg/injection, schedule: Q03HX024 (ip)", "value": "5 of 6"}, {"measurement": "survivor count", "setting": "dose: 5.9 mg/kg/injection, schedule: Q04DX003 (ip)", "value": "6 of 6"}, {"measurement": "survivor count", "setting": "dose: 8.9 mg/kg/injection, schedule: Q01DX001 (ip)", "value": "6 of 6"}, {"measurement": "survivor count", "setting": "dose: 8.9 mg/kg/injection, schedule: Q01DX009 (ip)", "value": "6 of 6"}, {"measurement": "survivor count", "setting": "dose: 8.9 mg/kg/injection, schedule: Q04DX003 (ip)", "value": "6 of 6"}, {"measurement": "survivor count", "setting": "dose: 10.0 mg/kg/injection, schedule: Q01DX001 (ip)", "value": "6 of 6"}, {"measurement": "survivor count", "setting": "dose: 10.0 mg/kg/injection, schedule: Q04DX003 (ip)", "value": "6 of 6"}, {"measurement": "survivor count", "setting": "dose: 10.0 mg/kg/injection, schedule: Q08DX002 (ip)", "value": "6 of 6"}, {"measurement": "survivor count", "setting": "dose: 13.3 mg/kg/injection, schedule: Q01DX001 (ip)", "value": "6 of 6"}, {"measurement": "survivor count", "setting": "dose: 13.3 mg/kg/injection, schedule: Q04DX003 (ip)", "value": "5 of 6"}, {"measurement": "survivor count", "setting": "dose: 20.0 mg/kg/injection, schedule: Q01DX001 (ip)", "value": "6 of 6"}, {"measurement": "survivor count", "setting": "dose: 20.0 mg/kg/injection, schedule: Q04DX003 (ip)", "value": "6 of 6"}, {"measurement": "survivor count", "setting": "dose: 20.0 mg/kg/injection, schedule: Q08DX002 (ip)", "value": "6 of 6"}, {"measurement": "survivor count", "setting": "dose: 30.0 mg/kg/injection, schedule: Q01DX001 (ip)", "value": "5 of 6"}]}]}
